Library screening results

Protein sequences, listed by entry. Tags and fused reporters are not part of them.
UniProt E9BF75, entry or part of it: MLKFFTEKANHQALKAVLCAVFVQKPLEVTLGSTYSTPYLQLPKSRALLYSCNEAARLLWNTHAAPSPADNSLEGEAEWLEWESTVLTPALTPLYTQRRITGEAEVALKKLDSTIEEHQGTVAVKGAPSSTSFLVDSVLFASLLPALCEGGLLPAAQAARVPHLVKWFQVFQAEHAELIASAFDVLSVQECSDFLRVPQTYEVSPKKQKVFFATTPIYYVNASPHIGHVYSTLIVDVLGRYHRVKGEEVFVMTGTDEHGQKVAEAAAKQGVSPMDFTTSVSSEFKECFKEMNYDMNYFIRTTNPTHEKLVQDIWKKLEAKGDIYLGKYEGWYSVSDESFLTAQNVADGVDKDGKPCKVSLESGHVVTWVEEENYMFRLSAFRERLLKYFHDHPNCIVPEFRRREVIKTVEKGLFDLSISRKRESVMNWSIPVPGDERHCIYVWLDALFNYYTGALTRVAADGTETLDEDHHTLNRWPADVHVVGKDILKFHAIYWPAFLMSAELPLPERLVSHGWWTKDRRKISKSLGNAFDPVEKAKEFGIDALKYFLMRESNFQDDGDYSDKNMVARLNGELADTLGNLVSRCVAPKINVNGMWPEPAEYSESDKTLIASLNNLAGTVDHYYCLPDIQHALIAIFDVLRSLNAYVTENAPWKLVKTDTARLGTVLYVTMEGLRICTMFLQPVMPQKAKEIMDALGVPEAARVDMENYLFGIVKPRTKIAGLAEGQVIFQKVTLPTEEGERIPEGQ

Source: ChEMBL document CHEMBL3988442, “University of Dundee, Small-Polar-MMV Screening Library” (2021).

Results are percentages, as filed. How 0% and 100% were set is not recorded. Most values in the screen are low, and negative values occur. This is an unselected part of the compounds tested. A dash means the value is not listed here; it may have been measured.

A: 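Assay on Mycobacterium tuberculosis, filed only as a heat shock assay from Cornell; the read-out is not stated. The concentration is filed as 10 mM, unlikely as a test dose, so the dose is not known. The record gives no direction; compounds that gave an IC50 in retests scored well above the rest, so higher reads as stronger inhibition. Of about 69,000 compounds tested this way, about 930 (1.4%) reached 50% or more in at least one test.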
B: 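Primary screen of methionyl-tRNA synthetase; the read-out is not stated. Target: Methionyl-tRNA synthetase (putative), Leishmania donovani (UniProt E9BF75). The test concentration is not given. Values are per cent inhibition. Size under these conditions: about 68,000 compounds, about 24 of them at 50% or above in at least one test.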
C: 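Whole-cell assay for inhibitors of Mycobacterium tuberculosis growth, labelled Cornell in the record; the read-out is not stated. The concentration is filed as 10 mM, unlikely as a test dose, so the dose is not known. The record gives no direction; compounds strong in two other growth screens of this library score well above the rest, so higher reads as stronger inhibition. About 53,000 compounds were tested under these conditions; 1.7% (about 900) showed 50% or more at least once.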

| SMILES | A | B | C |
|---|---|---|---|
| `Fc1cnc(N2CCCn3c(nnc3Cn3cccn3)C2)nc1` | -15.03% | 3.136% | -3.118% |
| `CCCc1nn(C2CCN(C3CC3)C2=O)c(=O)o1` (centres unmarked) | 13.25% | 10.48% | 14.89% |
| `Cc1ccc(N2CC[C@]3(O)CCN(CCN4CCCC4=O)C[C@@H]3C2)nn1` | - | 3.922% | - |
| `O=C(O)CN1CCC(F)(F)C2(CCN(c3ccccc3)C2)C1` (centres unmarked) | - | 40.77% | - |
| `COc1cc(OC)cc(-n2ccnc2-c2cc3n(n2)CCNC3)c1` | -33.82% | 18.37% | 14.98% |
| `COCC(=O)N1CCN(CC2CC2)c2ncccc2C1` | -15.77% | 2.747% | -18.79% |
| `O=C(NCCSc1ccccc1F)NCc1cccnc1` | -15.46% | 25.54% | - |
| `CN(C)c1cc(CNC(=O)C2COc3ccccc3O2)ccn1` (centres unmarked) | 3.792% | 5.866% | 5.287% |
| `[H][C@@]12C[C@@H](Oc3cccnc3)CN1CCN(C(=O)c1ccnnc1)C2` | -22.3% | - | - |
| `CCn1cc(NC(=O)NCC(O)CN2CCCCC2)cn1` (centres unmarked) | 12.88% | 11.81% | - |
| `O=C(C[S+]([O-])Cc1ccc(F)cc1Cl)NC1CCCC1` (centres unmarked) | -1.91% | 18.56% | 26.53% |
| `Cc1ccncc1C(=O)N1CC[C@@]2(O)CCN(C3CCCCC3)C[C@H]2C1` | - | 5.155% | - |
| `N#Cc1cc(NS(=O)(=O)c2cc(C(=O)O)cc(Cl)c2Cl)ccc1F` | -17.16% | -3.989% | 13.91% |
| `CCOCc1nc(N2CCOCC2)sc1C(=O)NCCCc1ccco1` | -8.555% | 9.492% | - |
| `O=c1[nH]nc2c(N3CCOCC3)nccn12` | -15.02% | 9.714% | - |
| `Cc1cc(NC(=O)CO)nn1-c1ccc(Cl)cc1Cl` | -7.546% | 14.97% | -10.2% |
| `Cn1nnc2c(sc3nc(N4CCOCC4)c4c(c32)CCC4)c1=O` | 20.13% | 9.677% | 7.224% |
| `N#CCCN(C(=O)CN1CCCC1c1ccsc1)c1ccccc1F` (centres unmarked) | 30.73% | 18.1% | 21.1% |
| `Cc1c(Cl)cccc1N1CC(c2nnc(N)s2)CC1=O` (centres unmarked) | -14.66% | 5.949% | -14.55% |
| `Cc1nc(CN2CCCC(CCc3ccccc3C)C2)c[nH]1` (centres unmarked) | -9.479% | -1.099% | - |
| `Cc1ccc(CNC(=O)CN2CCN(CCO)CC2)s1` | 2.41% | 14.58% | 33.87% |
| `CCN(CC(C)C#N)C(=O)CNc1ccc(C(N)=O)c(C)c1` (centres unmarked) | 3.223% | 2.579% | 7.465% |
| `CC1CCN(CCCNC(=O)NC(C)c2nncn2C)CC1` (centres unmarked) | 68.75% | 6.145% | - |
| `O=C(NCc1nncn1-c1ccccc1)C1CCCC1` | -10.13% | 15.03% | - |
| `Cc1nccn1CCCn1cncc1-c1ccc2c(c1)CCCN2C.Cl` | -22.83% | - | 0.2069% |
| `NC1CCc2nc(-c3cccnc3)nc(Nc3ccc(F)cc3)c2C1` (centres unmarked) | - | 16.28% | - |
| `CN(C)c1ccc(NC(=O)N2CCc3sccc3C2)cn1` | -26.5% | - | - |
| `CCN1C(=O)C2(CCOCC2)c2cc(NC(=O)COC)ccc21` | -8.948% | 13.98% | 3.2% |
| `Cn1c(=O)[nH]c2cc(C(=O)OCC(F)F)ccc21` | -11.26% | 11.56% | 22.08% |
| `Fc1ccc(C2(CNC3=NCCCN3)CCC2)cc1` | - | 5.415% | - |
| `CCc1ncc(C(=O)c2ccc(OC)cc2)n1C` | -0.3316% | 6.178% | -6.186% |
| `Cc1cnn(CC2CCCN2Cc2nc(C)c3ccccc3n2)c1` (centres unmarked) | 101.6% | 41.57% | - |
| `O=C(C1CN(CC2CCOCC2)CC12CCOCC2)N1CCOCC1` (centres unmarked) | - | 18.8% | - |
| `CN(Cc1ccc(F)cc1)C(=O)Nc1cccnc1N1CCCC1` | 4.355% | 13.14% | 9.41% |
| `CN(C[C@@H]1CCC[C@@H]2CN(c3ncccn3)C[C@@H]21)C1CC1` | - | 8.333% | - |
| `Cc1nn(CC(O)CN2CCC(C)CC2)c(=O)c(C#N)c1C` (centres unmarked) | 4.838% | 10.08% | 8.316% |
| `O=C(O)C(F)(F)F.[H][C@@]12CCCO[C@]1([H])[C@H](NC(=O)c1cnn(C)c1)CN2CC1CCOCC1` | -53.22% | - | 17.96% |
| `Cn1cnnc1S(=O)(=O)C1CCN(C(=O)c2ccsc2)CC1` | 0.413% | 5.797% | -9.128% |
| `COCCC1(CNC(=O)NCC2CCC2)CCC1` | 9.911% | 7.971% | 31.32% |
| `CSCC[C@H](N)c1nnc(SCC(=O)Nc2ccc(Br)cc2)o1` | - | 8.746% | - |
| `Cc1nc(C(=O)N2CCCC(c3cc(C(F)(F)F)[nH]n3)C2)c[nH]1` (centres unmarked) | -6.231% | 17.88% | - |
| `O=C(NCc1cccnc1N1CCCCC1)c1ccc2cc[nH]c2c1` | 2.544% | 21.05% | 23.21% |
| `Cc1nc[nH]c1CN1CCCC12CCN(c1nc3ccccc3s1)CC2` | 24.21% | 17.61% | -4.142% |
| `CC1c2ccc(F)cc2CCN1C(=O)c1[nH]c(=O)[nH]c(=O)c1N` (centres unmarked) | 8.053% | 19.2% | 102.4% |
| `C[C@@H]1CN(c2ccc(Cl)cn2)C[C@]1(C)O` | 8.014% | 15.87% | 5.032% |
| `NC(=O)CSCCC(=O)N1CCCC1c1ccsc1` (centres unmarked) | 1.244% | 15.93% | 2.904% |
| `Cc1cccc(C(=O)N2CCCC(c3noc(C)n3)C2)n1` (centres unmarked) | -5.882% | 8.434% | - |
| `CC(C)(C)C(Cn1cccn1)NC(=O)c1ccco1` (centres unmarked) | -5.457% | 2.432% | 5.904% |
| `O=C(O)C(F)(F)F.[H][C@@]12CN(C(=O)c3ccc(O)cc3)C[C@]1([H])OCCN2c1ncccn1` | -34.63% | - | -9.65% |
| `COc1ccccc1N1CCN(C(=O)CCn2ccc(C)n2)CC1(C)C` | -11.93% | 19.93% | 22.58% |
| `[H][C@@]12COC[C@]1([H])[C@@H](OCc1cccnc1)CN2C(=O)c1ccc[nH]1` | -1.157% | - | 17.88% |
| `CCCn1cc(NC(=O)c2ccncc2)ccc1=O` | -17.22% | 13.71% | - |

For reference, 4 entries once more:

Cn1nnc2c(sc3nc(N4CCOCC4)c4c(c32)CCC4)c1=O gave A: 20.13%; B: 9.677%; C: 7.224%.
NC(=O)CSCCC(=O)N1CCCC1c1ccsc1 (centres unmarked) gave A: 1.244%; B: 15.93%; C: 2.904%.
Cn1c(=O)[nH]c2cc(C(=O)OCC(F)F)ccc21 gave A: -11.26%; B: 11.56%; C: 22.08%.
C[C@@H]1CN(c2ccc(Cl)cn2)C[C@]1(C)O gave A: 8.014%; B: 15.87%; C: 5.032%.